A short description of the data set: general procedure: Boc solid-phase peptide synthesis; 4-Methyl benzhydrylamine resin. The settings on record: whole synthesis.

HELM strings list residues between dots; [ac] is acetyl, [am] amide, other brackets name non-standard units.

Under “scale 0.51 mmol”, “Arginyl-glutaminyl-seryl-prolyl-glutamyl-lysyl-glycyl-leucyl-glutamyl-tryptophyl-valyl-alanyl-glutamyl-isoleucyl-arginyl-seryl-lysyl-seryl-isoleucine- amide” gave a crude mass of 0.56 g.

The substance “PEPTIDE1{[ac].L.I.K.Y.A.S.Q.S.M.S.G.I.[am]}$$$$V2.0” came in with a crude mass (scale 0.5 mmol) of 0.61 g.

“Acetyl-tyrosyl-tyrosyl-seryl-glutaminyl-glutaminyl-seryl-histidyl-seryl-tryptophyl-prolyl-phenylalanyl-threonyl-phenylalanine-amide”: for the setting “scale 0.5 mmol”, the crude mass is 0.592 g.

With “Acetyl-aspartyl-isoleucyl-leucyl-leucyl-threonyl-glutaminyl-seryl-prolyl-alanyl-isoleucyl-leucyl-seryl-valyl-seryl-prolyl-glycyl-glutamyl-arginyl-valyl-seryl-phenylalanyl-serine-amide”, the crude mass (scale 0.5 mmol) turned out to be 1.06 g.

For “PEPTIDE1{[ac].F.S.N.H.W.M.N.W.V.R.[am]}$$$$V2.0”, for the setting “scale 0.5 mmol”, the crude mass is 1.03 g.

The substance “Acetyl-tyrosyl-alanyl-glutamyl-seryl-valyl-lysyl-glycyl-arginyl-phenylalanyl-threonyl-isoleucyl-seryl-arginyl-aspartyl-aspartyl-seryl-lysyl-seryl-alanyl-valyl-tyrosyl-leucine-amide” came in with a crude mass (scale 0.5 mmol) of 1.220 g.

“Acetyl-threonyl-aspartyl-leucyl-arginyl-threonyl-glutamyl-aspartyl-threonyl-glycyl-valyl-tyrosyltyrosyl-cysteinyl-seryl-arginyl-asparaginyl-tyrosyl-tyrosyl-glycyl-seryl-threonyl-tyrosine-amide” showed a crude mass (scale 0.5 mmol) of 1.07 g.

Consider “Acetyl-isoleucyl-asparaginyl-threonyl-valyl-glutamyl-seryl-glutamyl-aspartyl-isoleucyl-alanyl-aspartyl-tyrosyl-tyrosyl-cysteinyl-glutaminyl-glutaminyl-seryl-histidyl-seryl-tryptophan-amide”, for which the crude mass (scale 0.5 mmol) amounted to 1.1 g.

These data come from patent US5519000A (Centecor, Inc., priority 1994, dated 1996).
